Paper doi:10.1101/2023.10.06.559866
No constants are given. Whether binding was seen depends on the method and setting. In cells and extracts the contact can be indirect. A yes stands for co-enrichment or nearness to the bait. Other partners may have been found. Tags and fused reporters may be left off the sequences shown.

Chains of the proteins cited; added tags and fusions are not shown.
UniProt P60468: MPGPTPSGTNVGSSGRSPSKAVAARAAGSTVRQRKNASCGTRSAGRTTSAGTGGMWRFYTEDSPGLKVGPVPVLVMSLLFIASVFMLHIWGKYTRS
UniProt Q99720: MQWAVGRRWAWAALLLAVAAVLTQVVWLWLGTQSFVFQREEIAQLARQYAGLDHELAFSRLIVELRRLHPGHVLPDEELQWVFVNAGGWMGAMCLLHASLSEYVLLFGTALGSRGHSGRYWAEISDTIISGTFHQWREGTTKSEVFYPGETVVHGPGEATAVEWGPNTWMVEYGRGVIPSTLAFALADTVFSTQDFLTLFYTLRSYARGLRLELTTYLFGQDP

T1: 3x FLAG-mNeon-tagged Lrrc59 (UniProt Q96AG4)
T1 sequence: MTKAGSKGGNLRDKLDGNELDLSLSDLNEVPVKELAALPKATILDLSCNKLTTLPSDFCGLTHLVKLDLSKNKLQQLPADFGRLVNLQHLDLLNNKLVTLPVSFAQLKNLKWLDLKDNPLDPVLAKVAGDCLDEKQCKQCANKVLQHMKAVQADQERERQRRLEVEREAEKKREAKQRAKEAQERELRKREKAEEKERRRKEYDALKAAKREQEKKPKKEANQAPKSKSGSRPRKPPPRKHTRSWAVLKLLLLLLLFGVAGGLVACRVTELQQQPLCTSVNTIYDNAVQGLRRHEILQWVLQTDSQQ


Target: T1, 3x FLAG-mNeon-tagged Lrrc59
Assay: affinity purification with mass spectrometry

binding	Molecule
binds	SEC61B (Sec61β) (from UniProt P60468 1-96)
binds	Sigma-1 receptor (from UniProt Q99720 1-223)
binds	SRPRB (SRβ) (protein, UniProt Q9Y5M8 1-271) MASADSRRVADGGGAGGTFQPYLDTLRQELQQTDPTLLSVVVAVLAVLLTLVFWKLIRSRRSSQRAVLLVGLCDSGKTLLFVRLLTGLYRDTQTSITDSCAVYRVNNNRGNSLTLIDLPGHESLRLQFLERFKSSARAIVFVVDSAAFQREVKDVAEFLYQVLIDSMGLKNTPSFLIACNKQDIAMAKSAKLIQQQLEKELNTLRVTRSAAPSTLDSSSTAPAQLGKKGKEFEFSQLPLKVEFLECSAKGGRGDVGSADIQDLEKWLAKIA
